## Results of single-concentration screens

By UniProt entry, the sequences of proteins in these tests, tags left out.
UniProt P9WPC5, whole entry: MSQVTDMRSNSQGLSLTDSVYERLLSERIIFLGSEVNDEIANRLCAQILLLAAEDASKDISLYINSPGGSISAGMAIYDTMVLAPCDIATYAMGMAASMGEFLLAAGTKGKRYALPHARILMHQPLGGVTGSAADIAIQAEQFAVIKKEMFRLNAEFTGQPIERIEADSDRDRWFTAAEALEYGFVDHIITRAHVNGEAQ
UniProt P9WPC3, whole entry partner: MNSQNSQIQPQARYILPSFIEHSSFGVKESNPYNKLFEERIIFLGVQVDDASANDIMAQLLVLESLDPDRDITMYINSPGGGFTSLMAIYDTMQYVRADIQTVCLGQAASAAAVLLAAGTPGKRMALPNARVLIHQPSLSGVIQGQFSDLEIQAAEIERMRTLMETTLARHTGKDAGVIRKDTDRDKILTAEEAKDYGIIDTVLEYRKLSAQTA

From ChEMBL document CHEMBL3988442, “University of Dundee, Small-Polar-MMV Screening Library” (2021).

Toxoplasma: 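Assay of Toxoplasma gondii numbers, read through their beta-galactosidase reporter with a colour substrate. Tested at 10 µM. Higher reads as fewer parasites (inferred from which compounds were picked for retests). Size under these conditions: about 67,000 compounds, about 260 of them at 50% or above in at least one test.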
ClpP1P2: 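ClpP1P2, Mycobacterium tuberculosis (UniProt P9WPC5 and UniProt P9WPC3). Protease assay of ClpP1P2, read by the AMC dye that it sets free. Concentration: 50 µM. Direction is inferred from only a few compounds that gave an IC50; most scored high, so higher reads as stronger inhibition. Most other retested compounds had strongly negative values. Size under these conditions: about 69,000 compounds, about 10 of them at 50% or above in at least one test.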
Leishmania in macrophages: 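Cell assay of Leishmania donovani living inside macrophages; the read-out is not stated. Concentration: 30 µM. The record gives no direction; compounds that gave an IC50 in retests scored well above the rest, so higher reads as stronger inhibition. About 69,000 compounds were tested under these conditions; 1.5% (about 1,000) showed 50% or more at least once.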
T. brucei: 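Whole-parasite assay of Trypanosoma brucei over 72 hours; the read-out is not stated. Tested at 30 µM. Direction is inferred from retests: higher values go with stronger inhibition. Values scatter widely below zero; nearly all retest evidence comes from the higher of the two concentrations used. Of about 64,000 compounds tested this way, about 940 (1.5%) reached 50% or more in at least one test.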

Values are the deposited “Percent Effect”, in %.
How 0% and 100% were set is not recorded. Most values in the screen are low, and negative values occur.
This is an unselected part of the compounds tested.
Two or more numbers in one place are separate tests of the same structure; such repeats can differ widely.
A dash means the value is not listed here; it may have been measured.

structure,Toxoplasma,ClpP1P2,Leishmania in macrophages,T. brucei
CC(=O)N1CC[C@H]2OCC[C@@]2(C(=O)NCc2cnc(C)cn2)C1,-,3.279,-,-
N#Cc1cc(S(N)(=O)=O)ccc1N1CCN(c2ccccc2)CC1,-13.88,-4.144,-67.2,-96.94
O=C(NCCOc1ccccc1)Nc1cc(C(F)(F)F)c[nH]c1=O,10.04,-23.17,10.22,-
O=C(c1cccc(S(=O)(=O)NCCc2cscn2)c1)N1CCOCC1,2.839,3.366,-16.05,-30.3
O=C(NC[C@H]1CC[C@H](c2ccnc3ncnn32)CC1)c1ccccn1,-,-20.55,56.14,-
CCn1cnnc1CNC(=O)N1CCN(Cc2ccco2)CC1,0.4295,-52.33,18.79,-
CCn1c(CN(C)C)nnc1C1CCN(Cc2cnc(C)nc2)CC1,-3.325,-5.075,19.33,-32.01
O=C(NCCCSc1ccc(F)cc1)C1CCc2cn[nH]c2C1 (configuration not stated),-2.841,-6.584,16.51,6.798
O=C(O)C(F)(F)F.O=C(O)C(F)(F)F.[H][C@]12CCC[C@@H](CN(C)C3CC3)[C@@]1([H])CN(Cc1cccnc1)C2,-14.45,-,34.8,-
N#CCCN(Cc1ccccn1)C(=O)Nc1cccc(F)c1,-1.795,-2.821,-16.82,-28.68
c1ccc(CN2CCC(NCCSc3cnn[nH]3)CC2)cc1,10.59,-9.372,25.97,-2.943
COc1c(C2CCCN2Cc2nc(C)c(C)o2)c(C)nn1C (configuration not stated),-16.04,-7.008,11.57,-11.16
[H][C@]12CCN(C(=O)c3ccco3)[C@@]1([H])CC[C@H](COCC1CCOCC1)O2,2.841,-,-26.39,-47.76
CCN1C(=O)CC[C@]12CC[C@@H](NC(=O)c1cnccn1)CC2,21.63,10.7,-9.554,-18.7
CN(Cc1ccoc1)C(=O)C1CC(=O)N(Cc2ccncc2)C1 (configuration not stated),1.913,-4.882,7.333,-1.125
c1cnc(N2CCO[C@@H]3CN(Cc4ccoc4)C[C@@H]3C2)nc1,-,-2.387,-,-
NC(=O)CN1CCC(NC(=O)c2ccn(-c3cccc(F)c3)n2)CC1,2.733,-13.9,-6.073,-25.54
[H][C@]12CCN(c3ncccn3)CC[C@@]1([H])S(=O)(=O)N(CC)C2,1.108,-,9.279,22.7
Cc1ccccc1CCNC(=O)N1CCCC(c2nncn2C)C1 (configuration not stated),3.143,-0.7403,10,11.06
COCc1cnc2n1CCN(C(=O)c1oc3ccccc3c1C)C2C (configuration not stated),13.4,-0.9942,27.94,-40.03
COCCC(=O)N1CC[C@@H]2O[C@@H](C)C[C@H]2C1,-,5.235,-,-
NS(=O)(=O)Cc1cccc(C(=O)N2CCCC(n3cccn3)C2)c1 (configuration not stated),-13.85,-10.98,22.88,-9.369
Clc1ccccc1OC1CCN(CC2CCOC2)CC1 (configuration not stated),-12.51,-4.124,15.14,5.885
CNc1cc(CCNC(=O)c2cccnc2)nc(-c2ccncc2)n1,4.164,5.339,14.07,9.958
O=C(Cc1ccsc1)N1CCC(O)(CN2CCc3ccccc3C2)C1 (configuration not stated),-33.47,-12.69,3.103 & -10.12,24.65
O=C(CN1CCOC(Cn2cccn2)C1)NC1CCN(C2CC2)CC1 (configuration not stated),-2.134,-1.114,17.32,-40.2
CCc1nc(N2CCCC(CCCOC)(C(=O)O)C2)ncc1C (configuration not stated),2.741,-4,2.404,5.523
CSCc1cccc(C(=O)N2CCN(CC(C)O)CC2)c1 (configuration not stated),-0.6353,-9.397,-10.7,-0.2835
Clc1cncc(NCc2cccc(COC3CCOCC3)c2)n1,16.03,-13.3,4.725,-22.8
c1ccc2c(c1)nc1n2[C@@H](CNCc2nccs2)COC1,-1.601,-16.28,25.21,7.795
Cc1ncsc1CCN1CCN(C(=O)c2ccc(=O)[nH]c2)CC1,8.843,11.37,4.061,-47.53
CCN(Cc1nc(COC)no1)Cc1ccccc1OCC(=O)O,-12.15,-8.067,-22.21,-25.88
Cn1cc(CNC2CC3(CCN(CC4CC4)CC3)c3ccccc32)cn1.O=C(O)C(F)(F)F.O=C(O)C(F)(F)F.O=C(O)C(F)(F)F (configuration not stated),-2.211,-,32.71,-38.25
O=C1CC(c2ccncc2)C2(CCN(C(=O)c3cccc(F)c3)CC2)N1 (configuration not stated),-,-4.916,-,-
[H][C@@]12CS(=O)(=O)C[C@]1([H])N(C(=O)CCn1cc(Cl)cn1)CCN2CC1CC1,-40.26,-,8.256,23.05
COCCOCCNC(=O)c1cccc(Cn2nc(C)cc2C)c1,33.68,1.016,16.52,-55.89
CC1CN(CC(=O)NC(=O)NCc2cccs2)CCN1CC(F)(F)F (configuration not stated),-9.258,-1.075,10.75,10.74
Cc1nonc1CN(C)Cc1c[nH]nc1-c1ccc(F)cc1F,2.67,-9.942,1.954,10.41
CN(C)CC1CN(Cc2c(Cl)ccc3cccnc23)CCO1 (configuration not stated),2.913,-0.4542,17.1,-43.68
CC(=O)N1CCN(c2cncc(C3CCNCC3)n2)CC1,-,-2.273,-,-

Once more, the final 3:

Result for Cc1nonc1CN(C)Cc1c[nH]nc1-c1ccc(F)cc1F was Toxoplasma: 2.67%; ClpP1P2: -9.942%; Leishmania in macrophages: 1.954%; T. brucei: 10.41%.
Result for CN(C)CC1CN(Cc2c(Cl)ccc3cccnc23)CCO1 (configuration not stated) was Toxoplasma: 2.913%; ClpP1P2: -0.4542%; Leishmania in macrophages: 17.1%; T. brucei: -43.68%.
Result for CC(=O)N1CCN(c2cncc(C3CCNCC3)n2)CC1 was ClpP1P2: -2.273%.